PubChem BioAssay AID602196 – INSERM, 2012

Aim: 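Genes whose knock-down alters cisplatin killing of lung cancer cells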
Cells: human A549 lung cancer cells
Knock-down reagent: siRNA pair against human genes
Timing: 48 h transfection before cisplatin; time from cisplatin to read-out not stated
Treatment: cisplatin at a dose killing half of control-siRNA cells; exact dose and duration not given
Detection: 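Cisplatin cell death as a shift from the 50% death seen with control siRNA; siRNAs toxic or growth-blocking alone scored 0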
Scale: two-siRNA summed score (-2 to +2): higher = both siRNAs protect from cisplatin killing; -2 means both sensitise
Active means: 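siRNAs harmful alone (LDH or WST-1) get 0; others get +1 for less and -1 for more cisplatin killing; genes are active when the two siRNAs give the same sign, summing to ±2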
Calls: active = both siRNAs shift cisplatin killing the same way; inactive = no consistent shift, or siRNA harmful alone
The whole screen tested about 23,000 reagents; this is a part drawn at random. Of all reagents, 455 (2%) got an active call. 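Active includes both protection and sensitisation; some change values fall well beyond the stated -50 to +50 range.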 Not all columns of the deposit are shown. Not given: the amount of reagent.

LOC285658 showed two-siRNA summed score (-2 to +2) = 1; inactive.
Silencing of FFAR1 gave: two-siRNA summed score (-2 to +2) = 0; inactive.
Against IL36A the deposit lists two-siRNA summed score (-2 to +2) = 0; inactive.
ZNF154 showed two-siRNA summed score (-2 to +2) = 0; inactive.
With knock-down of LOC441620, the record shows two-siRNA summed score (-2 to +2) = 0; inactive.
QRFP scored two-siRNA summed score (-2 to +2) = 0; inactive.
Against CFAP299 the deposit lists two-siRNA summed score (-2 to +2) = 0; inactive.
RAD51B gave two-siRNA summed score (-2 to +2) = 0; inactive.
Against TRIM36 the deposit lists two-siRNA summed score (-2 to +2) = 0; inactive.
Depletion of LINC01623 gave: two-siRNA summed score (-2 to +2) = 0; inactive.
After knock-down of ABCA3 the results were two-siRNA summed score (-2 to +2) = 0; inactive.
After knock-down of NOG the results were two-siRNA summed score (-2 to +2) = 1; inactive.
Depletion of MC3R came out at: two-siRNA summed score (-2 to +2) = -1; inactive.
For KIAA0493 the deposit lists two-siRNA summed score (-2 to +2) = -1; inactive.
GABBR2 showed two-siRNA summed score (-2 to +2) = 0; inactive.
ZNF558 gave two-siRNA summed score (-2 to +2) = 0; inactive.
After knock-down of PSMC1, the screen gave two-siRNA summed score (-2 to +2) = 1; inactive.
With knock-down of SLC4A2, the record shows two-siRNA summed score (-2 to +2) = 1; inactive.
With knock-down of EGLN2, the screen gave two-siRNA summed score (-2 to +2) = -1; inactive.
Knock-down of DLL3 resulted in: two-siRNA summed score (-2 to +2) = -1; inactive.
SNCB showed two-siRNA summed score (-2 to +2) = 0; inactive.
Depletion of FSD1 gave: two-siRNA summed score (-2 to +2) = 0; inactive.
With knock-down of LOC440605, the screen gave two-siRNA summed score (-2 to +2) = 0; inactive.
BRD7 scored two-siRNA summed score (-2 to +2) = 0; inactive.
With knock-down of FHL1, the screen gave two-siRNA summed score (-2 to +2) = 0; inactive.
Against GSR, the entry reads two-siRNA summed score (-2 to +2) = 0; inactive.
Knock-down of BSDC1 came out at: two-siRNA summed score (-2 to +2) = 0; inactive.
Knock-down of SULT1E1 gave: two-siRNA summed score (-2 to +2) = 0; inactive.
GDAP2 showed two-siRNA summed score (-2 to +2) = 0; inactive.
Against LOC285382, the values are two-siRNA summed score (-2 to +2) = 0; inactive.
TIMM29 gave two-siRNA summed score (-2 to +2) = 0; inactive.

As entered above.
For “activity call”, MC3R has inactive
For “two-siRNA summed score (-2 to +2)”, GDAP2 shows 0
For “two-siRNA summed score (-2 to +2)”, TRIM36 shows 0
